This is one part of the list.
Columns and labels:
Assay in all cases: log2 fold change, soluble protein after heating vs DMSO (PISA); higher = thermal stabilisation; K562 cells, 10 uM, 30 min; active = over 0.2 and 3.5 SD of the protein, either way, in both replicates (recomputed)
[1] = compound: C1=CC=C(C=C1)[C@H](COC2=CC3=C(C=C2)NC(=O)N3)NC(=O)C4=CC=CN(C4=O)CC5=CC(=C(C=C5)F)F
How it was run: (§1)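 Soluble protein was quantified by TMTpro 16plex LC-MS/MS after channel sums were equalised. It was obtained as the supernatant after 21,000xg for 90 min from pooled aliquots of K562 cells (2×10^6 cells/mL, 10 μM compound, 30 min) heated for 3 min across 48°C-58°C and extracted in PBS with 0.5% NP-40 at 4°C. Thermal stability values are relative to control samples and come from duplicates. They are given as log2 fold changes.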

[2] = compound: CC1=C(SC2=C1C(=N[C@H](C3=NN=C(N32)C)CC(=O)N)C4=CC=C(C=C4)Cl)C
How it was run: as §1

[3] = compound: CC1=C2C(=CC=C1)N=C(N(C2=O)C3=CC=CC=C3C)CN4C=NC5=C(N=CN=C54)N
How it was run: as §1

[4] = compound: Cc1sc2c(c1C)C(c1ccc(Cl)cc1)=N[C@@H](CC(=O)OC(C)(C)C)c1nnc(C)n1-2
How it was run: as §1

[5] = compound: c1ccc([C@@H]2C[C@H]2NC2CCNCC2)cc1
How it was run: as §1

[6] = compound: C1=CC2=NC=CN=C2C=C1/C=C/3\C(=O)NC(=O)S3
How it was run: as §1

[7] = compound: C=CC(=O)N1CCC[C@@H](n2nc(-c3ccc(Oc4ccccc4)cc3)c3c(N)ncnc32)C1 [ibrutinib]
How it was run: as §1

[8] = compound: CC1=C(C=C(C=C1)NC(=O)C2=CC(=CC=C2)C(C)(C)C#N)NC3=CC4=C(C=C3)N=CN(C4=O)C
How it was run: as §1

[9] = compound: CCN(CCCOc1ccc2c(Nc3cc(CC(=O)Nc4cccc(F)c4)[nH]n3)ncnc2c1)CCOP(=O)(O)O [barasertib]
How it was run: as §1

[10] = compound: CCn1cc(-c2ccnc3[nH]c(-c4cccc(CN(C)C)c4)cc23)c(-c2ccc(NC(=O)N(C)C)cc2)n1
How it was run: as §1

[11] = compound: CN(CCOC1=CC=C(C=C1)C[C@H]2C(=O)NC(=O)S2)C3=CC=CC=N3 (racemic) [rosiglitazone]
How it was run: as §1

[12] = compound: CN1CCC(CNc2ccc3ncc(-c4cccc(OC(F)(F)F)c4)n3n2)CC1
How it was run: as §1

[13] = compound: CN1CCN(c2nc(C3=C(c4c[nH]c5ccccc45)C(=O)NC3=O)c3ccccc3n2)CC1 [sotrastaurin]
How it was run: as §1

[14] = compound: CON(C)C(=O)N1N=C(c2cc(F)ccc2F)S[C@@]1(CCCN)c1ccccc1 [filanesib]
How it was run: as §1

[15] = compound: CS(=O)(=O)N1CCN(Cc2cc3nc(-c4cccc5[nH]ncc45)nc(N4CCOCC4)c3s2)CC1 [pictilisib]
How it was run: as §1

[16] = compound: CS(=O)(=O)c1ccc(-c2cnc(N)c(C(=O)Nc3ccccc3)n2)cc1
How it was run: as §1

[17] = compound: Cc1cc(Nc2cc(CN3CCOCC3)c3nc(C)c(Cc4ccc(Cl)cc4F)n3n2)n[nH]1 [gandotinib]
How it was run: as §1

[18] = compound: Cc1ccc(NC(=O)c2ccc(CN3CC[C@H](N(C)C)C3)c(C(F)(F)F)c2)cc1Nc1nccc(-c2cncnc2)n1 [bafetinib]
How it was run: as §1

[19] = compound: Cc1cccc(CC(=O)N2CCc3c2ccc(-c2cn(C)c4ncnc(N)c24)c3F)n1
How it was run: as §1

[20] = compound: NC(=O)Nc1cc(-c2cccc(F)c2)sc1C(=O)N[C@H]1CCCNC1
How it was run: as §1

[21] = compound: Nc1ccccc1NC(=O)c1ccc(CNC(=O)OCc2cccnc2)cc1 [entinostat]
How it was run: as §1

[22] = compound: O=C(CCCCCCC(=O)Nc1ccccc1)NO [vorinostat]
How it was run: as §1

Measured: log2 fold change

HSD17B4 (UniProt P51659)
inactive: [1] 0.01 | [2] 0.001 | [3] 0.025 | [4] 0.007 | [5] -0.009

HSPD1 (UniProt P10809)
inactive: [1] 0.005 | [2] 0.006 | [3] -0.003 | [4] -0.001 | [5] 0.021

HNRNPA3 (UniProt P51991)
inactive: [1] 0.18 | [2] -0.378 | [3] -0.179 | [4] 0.102 | [5] 0.02

ICE1 (UniProt Q9Y2F5)
inactive: [1] -0.05

HTATIP2 isoform 3 (UniProt Q9BUP3)
inactive: [1] 0.063 | [2] 0.031 | [3] 0.059 | [4] 0.028 | [5] -0.03

HSPA6 (UniProt P17066)
inactive: [1] 0.015 | [2] -0.017 | [3] 0.003 | [4] -0.032 | [5] 0.022

HMGN3 (UniProt Q15651)
inactive: [1] -0.013 | [2] -0.005 | [3] -0.093 | [4] 0.146 | [5] 0.083

HKDC1 (UniProt Q2TB90)
inactive: [1] -0.015 | [2] 0.056 | [3] 0.091 | [4] -0.033 | [5] -0.02

HIVEP1 (UniProt P15822)
inactive: [6] 0.05 | [1] 0.022 | [7] -0.041 | [8] 0.052 | [9] 0.011 | [10] 0.139 | [11] 0.063 | [12] -0.028 | [13] -0.007 | [14] 0.02 | [15] -0.046 | [16] 0.015 | [17] -0.194 | [18] 0.096 | [19] -0.026 | [20] -0.149 | [21] -0.057 | [22] 0.056

HYPK (UniProt Q9NX55)
inactive: [1] -0.068 | [2] 0.117 | [3] -0.01 | [4] -0.046 | [5] -0.023

HNRNPUL2 (UniProt Q1KMD3)
inactive: [1] 0.054 | [2] -0.05 | [3] -0.041 | [4] 0.105 | [5] 0.04

HSF1 (UniProt Q00613)
inactive: [1] -0.13 | [2] 0.177 | [3] 0.265 | [4] 0.001 | [5] -0.024

HYOU1, A0A494C039
inactive: [1] -0.057 | [2] 0.103 | [3] -0.131 | [4] -0.012 | [5] 0.117

Reprinted at random: 2 entries already listed
HKDC1 (UniProt Q2TB90)
inactive: [1] -0.015 | [2] 0.056 | [3] 0.091 | [4] -0.033 | [5] -0.02

HSD17B4 (UniProt P51659)
inactive: [1] 0.01 | [2] 0.001 | [3] 0.025 | [4] 0.007 | [5] -0.009

Following part

HSP90AB1 (UniProt P08238)
inactive: [1] -0.031 | [2] 0.033 | [3] 0.025 | [4] -0.017 | [5] -0.043

ICAM2 (UniProt P13598)
inactive: [1] 0.024 | [2] 0.016 | [3] -0.018 | [4] 0.019 | [5] 0

HNRNPA1 (UniProt H0YH80)
inactive: [1] 0.122 | [2] -0.275 | [3] -0.427 | [4] 0.229 | [5] 0.07

HNRNPAB isoform 3 (UniProt Q99729)
inactive: [1] 0.062 | [2] -0.092 | [3] -0.073 | [4] 0.142 | [5] 0.039

HSP90AA4P (UniProt Q58FG1)
inactive: [1] -0.017 | [2] 0.021 | [3] 0.005 | [4] 0.109 | [5] 0.004

HLTF (UniProt Q14527)
inactive: [1] 0.003 | [2] 0.012 | [3] 0.062 | [4] 0 | [5] -0.001

HMGB1 (UniProt P09429)
inactive: [1] -0.057 | [2] -0.037 | [3] -0.004 | [4] -0.063 | [5] -0.08

HUWE1 (UniProt Q7Z6Z7)
inactive: [1] -0.032 | [2] 0.022 | [3] 0.041 | [4] -0.002 | [5] -0.019

HSPA14 (UniProt Q0VDF9)
inactive: [1] -0.079 | [2] -0.015 | [3] 0.056 | [4] 0.062 | [5] -0.024

HIBCH (UniProt Q6NVY1)
inactive: [1] -0.035 | [2] 0.08 | [3] 0.053 | [4] -0.031 | [5] -0.028

Source: the supplement of paper PMC10849652
